The list shows a part of the results. The data scatter; read single values as rough.

The chains behind the UniProt entries cited, without tags or fusion partners. Where a name states a change or a piece, a line headed by the entry shows the natural chain unless it says otherwise. Residues count along the entry.
UniProt P33176: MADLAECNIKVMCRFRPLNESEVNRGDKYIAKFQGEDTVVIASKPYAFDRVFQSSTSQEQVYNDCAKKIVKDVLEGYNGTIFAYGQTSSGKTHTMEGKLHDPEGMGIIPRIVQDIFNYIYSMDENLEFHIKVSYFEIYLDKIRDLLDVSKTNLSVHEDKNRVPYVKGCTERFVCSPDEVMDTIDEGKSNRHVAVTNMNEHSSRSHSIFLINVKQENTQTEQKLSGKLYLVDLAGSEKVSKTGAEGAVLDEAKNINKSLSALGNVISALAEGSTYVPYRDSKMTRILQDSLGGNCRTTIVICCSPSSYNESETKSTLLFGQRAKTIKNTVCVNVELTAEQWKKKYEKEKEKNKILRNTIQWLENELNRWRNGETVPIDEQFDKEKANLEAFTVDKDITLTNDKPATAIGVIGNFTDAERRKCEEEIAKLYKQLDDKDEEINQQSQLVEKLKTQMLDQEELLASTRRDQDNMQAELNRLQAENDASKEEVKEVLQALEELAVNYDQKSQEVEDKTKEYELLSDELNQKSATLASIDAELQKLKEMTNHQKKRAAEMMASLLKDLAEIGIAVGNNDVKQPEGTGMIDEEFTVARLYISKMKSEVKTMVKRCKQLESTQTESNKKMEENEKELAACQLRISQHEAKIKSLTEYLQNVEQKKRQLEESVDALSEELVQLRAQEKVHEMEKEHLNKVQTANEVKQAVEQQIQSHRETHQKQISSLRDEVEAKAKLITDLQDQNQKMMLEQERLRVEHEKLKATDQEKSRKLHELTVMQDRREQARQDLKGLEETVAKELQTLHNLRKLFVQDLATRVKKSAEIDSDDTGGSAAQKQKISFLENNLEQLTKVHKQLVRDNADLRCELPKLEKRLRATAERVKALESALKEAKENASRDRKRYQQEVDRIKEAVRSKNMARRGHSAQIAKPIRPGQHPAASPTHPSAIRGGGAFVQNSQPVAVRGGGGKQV
UniProt Q71RC2, 593-615: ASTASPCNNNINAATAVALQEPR
UniProt Q07954: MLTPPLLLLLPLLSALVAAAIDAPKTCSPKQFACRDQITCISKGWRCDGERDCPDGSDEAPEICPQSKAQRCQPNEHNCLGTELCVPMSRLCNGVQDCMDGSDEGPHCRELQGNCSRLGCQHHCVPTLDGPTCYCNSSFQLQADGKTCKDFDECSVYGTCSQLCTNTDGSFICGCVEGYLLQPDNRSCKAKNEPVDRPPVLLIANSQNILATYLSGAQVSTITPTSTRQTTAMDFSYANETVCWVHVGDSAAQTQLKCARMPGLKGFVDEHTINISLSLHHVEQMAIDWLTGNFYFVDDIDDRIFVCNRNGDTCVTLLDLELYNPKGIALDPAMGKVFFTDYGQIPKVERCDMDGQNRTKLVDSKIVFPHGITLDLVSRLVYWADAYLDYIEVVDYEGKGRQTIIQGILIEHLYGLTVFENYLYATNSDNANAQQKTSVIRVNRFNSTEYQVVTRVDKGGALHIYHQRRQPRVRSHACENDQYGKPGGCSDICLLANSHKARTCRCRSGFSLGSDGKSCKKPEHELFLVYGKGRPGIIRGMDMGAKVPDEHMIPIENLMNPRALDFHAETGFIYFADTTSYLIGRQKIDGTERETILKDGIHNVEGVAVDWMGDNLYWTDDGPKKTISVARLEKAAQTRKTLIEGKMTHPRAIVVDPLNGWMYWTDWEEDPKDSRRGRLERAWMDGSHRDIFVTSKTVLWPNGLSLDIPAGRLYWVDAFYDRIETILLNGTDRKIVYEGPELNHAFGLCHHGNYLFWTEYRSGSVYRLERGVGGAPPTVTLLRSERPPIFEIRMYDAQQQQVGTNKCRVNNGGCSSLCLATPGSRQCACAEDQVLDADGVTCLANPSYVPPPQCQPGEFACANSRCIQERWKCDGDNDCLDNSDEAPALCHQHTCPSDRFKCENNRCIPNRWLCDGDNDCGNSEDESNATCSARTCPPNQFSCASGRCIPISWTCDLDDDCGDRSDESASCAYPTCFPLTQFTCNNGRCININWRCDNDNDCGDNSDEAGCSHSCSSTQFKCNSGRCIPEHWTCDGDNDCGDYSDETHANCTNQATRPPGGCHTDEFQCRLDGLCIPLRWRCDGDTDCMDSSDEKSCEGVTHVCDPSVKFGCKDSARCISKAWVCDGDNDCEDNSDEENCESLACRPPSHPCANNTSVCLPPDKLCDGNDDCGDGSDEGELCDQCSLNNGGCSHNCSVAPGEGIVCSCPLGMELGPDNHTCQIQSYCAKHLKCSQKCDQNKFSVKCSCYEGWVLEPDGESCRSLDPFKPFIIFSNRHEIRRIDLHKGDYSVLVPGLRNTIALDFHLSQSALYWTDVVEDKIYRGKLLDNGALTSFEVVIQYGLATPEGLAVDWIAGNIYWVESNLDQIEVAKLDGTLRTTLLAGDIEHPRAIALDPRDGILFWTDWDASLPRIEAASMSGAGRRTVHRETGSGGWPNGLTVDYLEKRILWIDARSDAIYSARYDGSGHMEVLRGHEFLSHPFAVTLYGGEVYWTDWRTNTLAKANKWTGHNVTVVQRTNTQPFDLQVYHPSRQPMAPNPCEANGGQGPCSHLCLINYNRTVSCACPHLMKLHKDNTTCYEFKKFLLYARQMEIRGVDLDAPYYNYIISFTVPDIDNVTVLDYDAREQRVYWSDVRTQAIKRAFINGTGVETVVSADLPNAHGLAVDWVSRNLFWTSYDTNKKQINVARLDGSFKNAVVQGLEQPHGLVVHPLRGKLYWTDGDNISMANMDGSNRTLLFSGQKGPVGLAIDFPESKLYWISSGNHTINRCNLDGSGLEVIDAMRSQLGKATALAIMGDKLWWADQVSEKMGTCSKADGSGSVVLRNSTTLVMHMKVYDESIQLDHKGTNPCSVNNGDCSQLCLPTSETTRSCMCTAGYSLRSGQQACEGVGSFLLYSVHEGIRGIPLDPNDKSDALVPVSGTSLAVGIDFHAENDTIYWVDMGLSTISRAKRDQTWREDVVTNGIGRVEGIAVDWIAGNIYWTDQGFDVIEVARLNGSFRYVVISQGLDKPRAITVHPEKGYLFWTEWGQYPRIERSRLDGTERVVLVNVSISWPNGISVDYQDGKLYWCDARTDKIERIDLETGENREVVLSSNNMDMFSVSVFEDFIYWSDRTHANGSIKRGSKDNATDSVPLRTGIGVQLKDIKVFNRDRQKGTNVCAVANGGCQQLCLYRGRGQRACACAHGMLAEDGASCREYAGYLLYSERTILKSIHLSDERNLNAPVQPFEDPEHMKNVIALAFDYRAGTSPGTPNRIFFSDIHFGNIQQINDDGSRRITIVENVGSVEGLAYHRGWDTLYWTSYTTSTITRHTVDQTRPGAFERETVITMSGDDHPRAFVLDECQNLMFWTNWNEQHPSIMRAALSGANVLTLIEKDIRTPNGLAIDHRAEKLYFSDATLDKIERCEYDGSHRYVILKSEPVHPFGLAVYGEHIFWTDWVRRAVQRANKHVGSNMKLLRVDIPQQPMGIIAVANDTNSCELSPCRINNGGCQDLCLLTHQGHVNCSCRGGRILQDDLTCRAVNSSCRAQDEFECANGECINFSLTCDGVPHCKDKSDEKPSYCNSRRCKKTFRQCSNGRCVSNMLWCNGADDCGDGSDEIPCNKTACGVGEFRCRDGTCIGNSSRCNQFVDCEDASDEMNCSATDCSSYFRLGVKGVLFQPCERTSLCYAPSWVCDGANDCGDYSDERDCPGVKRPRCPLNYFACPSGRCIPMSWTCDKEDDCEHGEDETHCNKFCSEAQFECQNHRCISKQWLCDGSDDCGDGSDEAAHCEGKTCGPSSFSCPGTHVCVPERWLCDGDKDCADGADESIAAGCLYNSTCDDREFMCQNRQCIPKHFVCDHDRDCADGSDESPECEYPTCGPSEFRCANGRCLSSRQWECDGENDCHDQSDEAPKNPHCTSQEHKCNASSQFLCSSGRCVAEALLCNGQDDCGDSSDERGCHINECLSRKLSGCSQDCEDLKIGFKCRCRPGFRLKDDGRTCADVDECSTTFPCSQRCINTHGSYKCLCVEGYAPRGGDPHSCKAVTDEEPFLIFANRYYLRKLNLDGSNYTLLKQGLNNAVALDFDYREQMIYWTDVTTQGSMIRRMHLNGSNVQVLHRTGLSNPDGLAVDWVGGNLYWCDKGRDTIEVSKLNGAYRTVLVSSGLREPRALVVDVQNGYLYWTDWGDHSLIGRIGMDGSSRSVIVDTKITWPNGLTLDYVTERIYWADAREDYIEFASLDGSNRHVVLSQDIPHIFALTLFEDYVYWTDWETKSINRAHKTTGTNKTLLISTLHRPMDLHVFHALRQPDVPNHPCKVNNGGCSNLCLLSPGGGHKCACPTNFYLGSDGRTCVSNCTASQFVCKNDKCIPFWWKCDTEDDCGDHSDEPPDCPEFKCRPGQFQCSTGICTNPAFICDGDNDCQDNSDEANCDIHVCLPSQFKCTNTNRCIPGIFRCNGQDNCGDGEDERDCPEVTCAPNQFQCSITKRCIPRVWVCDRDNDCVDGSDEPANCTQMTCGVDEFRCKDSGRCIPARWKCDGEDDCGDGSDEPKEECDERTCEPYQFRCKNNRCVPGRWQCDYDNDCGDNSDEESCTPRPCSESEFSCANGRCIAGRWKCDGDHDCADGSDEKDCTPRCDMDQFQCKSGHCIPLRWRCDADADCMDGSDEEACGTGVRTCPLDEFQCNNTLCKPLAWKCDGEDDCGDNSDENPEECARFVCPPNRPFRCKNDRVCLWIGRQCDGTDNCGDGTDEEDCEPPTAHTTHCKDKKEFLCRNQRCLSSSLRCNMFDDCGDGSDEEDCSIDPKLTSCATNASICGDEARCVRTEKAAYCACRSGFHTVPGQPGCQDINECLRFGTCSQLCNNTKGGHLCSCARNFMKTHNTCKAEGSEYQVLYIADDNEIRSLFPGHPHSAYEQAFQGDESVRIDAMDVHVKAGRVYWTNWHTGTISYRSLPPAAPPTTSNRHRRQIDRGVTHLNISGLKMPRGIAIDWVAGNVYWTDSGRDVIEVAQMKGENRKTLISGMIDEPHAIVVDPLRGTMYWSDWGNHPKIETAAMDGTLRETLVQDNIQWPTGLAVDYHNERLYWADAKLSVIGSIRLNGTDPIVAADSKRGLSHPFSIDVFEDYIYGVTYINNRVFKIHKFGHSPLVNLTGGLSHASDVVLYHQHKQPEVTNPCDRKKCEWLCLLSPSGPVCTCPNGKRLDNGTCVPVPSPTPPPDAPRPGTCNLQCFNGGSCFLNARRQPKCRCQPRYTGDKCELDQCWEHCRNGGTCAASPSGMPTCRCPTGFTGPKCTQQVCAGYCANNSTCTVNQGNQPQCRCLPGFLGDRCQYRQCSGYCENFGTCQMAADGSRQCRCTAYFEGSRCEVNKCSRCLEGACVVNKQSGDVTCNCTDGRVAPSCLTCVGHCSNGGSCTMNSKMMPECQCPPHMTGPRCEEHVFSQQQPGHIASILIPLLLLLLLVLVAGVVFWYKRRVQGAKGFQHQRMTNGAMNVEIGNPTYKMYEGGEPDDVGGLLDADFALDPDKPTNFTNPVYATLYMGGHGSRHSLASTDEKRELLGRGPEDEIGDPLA
UniProt P49916: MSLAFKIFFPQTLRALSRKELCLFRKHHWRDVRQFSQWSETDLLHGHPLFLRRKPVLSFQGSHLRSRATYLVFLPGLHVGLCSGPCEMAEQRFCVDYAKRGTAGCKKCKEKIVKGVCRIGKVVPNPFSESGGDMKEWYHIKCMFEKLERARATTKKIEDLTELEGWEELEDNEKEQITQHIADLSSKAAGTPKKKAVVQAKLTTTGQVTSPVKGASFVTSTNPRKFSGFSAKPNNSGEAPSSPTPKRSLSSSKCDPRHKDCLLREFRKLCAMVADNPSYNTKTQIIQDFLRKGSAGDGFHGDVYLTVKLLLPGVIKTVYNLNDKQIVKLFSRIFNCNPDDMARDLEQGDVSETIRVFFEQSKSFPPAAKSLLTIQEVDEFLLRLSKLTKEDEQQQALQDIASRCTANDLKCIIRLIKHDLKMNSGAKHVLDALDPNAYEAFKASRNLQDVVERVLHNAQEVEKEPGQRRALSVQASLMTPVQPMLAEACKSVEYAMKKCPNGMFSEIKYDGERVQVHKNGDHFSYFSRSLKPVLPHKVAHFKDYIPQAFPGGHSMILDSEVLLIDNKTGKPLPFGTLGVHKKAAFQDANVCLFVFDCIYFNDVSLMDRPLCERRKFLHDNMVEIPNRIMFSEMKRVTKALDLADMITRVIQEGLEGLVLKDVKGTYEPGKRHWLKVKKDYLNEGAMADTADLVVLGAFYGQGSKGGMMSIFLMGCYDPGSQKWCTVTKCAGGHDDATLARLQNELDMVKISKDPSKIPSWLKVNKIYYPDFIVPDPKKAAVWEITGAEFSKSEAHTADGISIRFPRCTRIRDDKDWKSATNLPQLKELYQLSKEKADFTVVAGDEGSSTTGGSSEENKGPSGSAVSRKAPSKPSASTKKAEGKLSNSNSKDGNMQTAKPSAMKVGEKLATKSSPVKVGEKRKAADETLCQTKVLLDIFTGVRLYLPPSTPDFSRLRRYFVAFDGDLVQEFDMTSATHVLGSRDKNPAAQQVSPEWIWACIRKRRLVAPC
UniProt Q15031, 202-228: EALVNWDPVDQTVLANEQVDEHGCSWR

Compound in one experiment: ClCC(=O)N[C@@H]1CCCc2ccccc12
In words: log2 mean competition ratio of IA-DTB cysteine labelling (DMSO/compound) (log2 ratio); higher = stronger cysteine engagement by compound. To be noted: 50 µM; treatment time: 4 h; cell line lysate: HEK293T. How it is done: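 IA-DTB competitive cysteine chemoproteomics in HEK293T RIPA lysate. Lysates were treated with compound 29 or 30 at 50 or 200 µM for 4 h, then IA-DTB (500 µM, 1 h), trypsin-digested, NeutrAvidin-enriched and analysed by diaPASEF. Competition ratio = intensity DMSO / intensity compound (n=4 treated, n=64 DMSO); binding: mean log2 CR ≥ 1 and p ≤ 0.05 plus QC filters. Target is the cysteine site.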
Consider LCP1 C460 (UniProt P13796), for which the “log2 mean competition ratio” value worked out at 0.334.
Same read-out and setting: to KIF5B C65 (UniProt P33176) belongs -0.353.
The same measure, in the same setting: under LRBA C1921 stands -0.0368.
On the same count and under the same terms, to LARP4B C633 (UniProt Q92615) belongs 0.535.
As to LACTB C476 (UniProt P83111), the “log2 mean competition ratio” value was -0.187.
Same read-out and setting: under LARP4 C599 (UniProt Q71RC2) stands 0.078; under KIF7 C1229, -0.0582; under KMT2D C5230 (UniProt O14686), -0.104.
Regarding LRP1 C2605 (UniProt Q07954), the “log2 mean competition ratio” value was -0.0767.
As to LRBA C2017, the “log2 mean competition ratio” value turned out to be 0.0132.
LENG8 C600 (UniProt Q96PV6): the “log2 mean competition ratio” value came out at 0.168.
On the same count and under the same terms, to KNTC1 C475 (UniProt P50748) belongs -0.0429; to KIFC1 C212 (UniProt Q9BW19), 0.0954; to KLC1 C236 (UniProt Q07866), -0.107.
In the case of L3HYPDH C205 (UniProt Q96EM0), the “log2 mean competition ratio” value was -0.0948.
Consider LIG3 C729 (UniProt P49916), for which the “log2 mean competition ratio” value is -0.00657.
Consider LARS1 C546, for which the “log2 mean competition ratio” value was -0.0757.
With LIMCH1 C333 (UniProt Q9UPQ0), the “log2 mean competition ratio” value came to 0.0572.
The same measure, in the same setting: under LCLAT1 C304 (UniProt Q6UWP7) stands -0.0191; under KRIT1 C297 (UniProt O00522), -0.0811; under LONP1 C520 (UniProt P36776), 0.267.
Same read-out and setting: under LEF1 C321 (UniProt Q9UJU2) stands -0.0591; under LMOD1 C72, 0.0334; under LIMA1 C316 (UniProt Q9UHB6), -0.239.
Consider LOC100421372 C227, for which the “log2 mean competition ratio” value stood at 0.385.
As for LARS2 C225 (UniProt Q15031), the “log2 mean competition ratio” value is -0.183.
As to LMO7 C261 (UniProt Q8WWI1), the “log2 mean competition ratio” value is -0.0909.
Take KPNA6 C296 (UniProt O60684): the “log2 mean competition ratio” value is -0.213.
With KLC4 C318 (UniProt Q9NSK0), the “log2 mean competition ratio” value was -0.00981.
On the same count and under the same terms, under LEMD2 C355 (UniProt Q8NC56) stands 0.283; under KIZ C543 (UniProt Q2M2Z5), 0.117.
Regarding LEMD3 C814 (UniProt Q9Y2U8), the “log2 mean competition ratio” value was -0.133.
Consider LIG1 C280 (UniProt P18858), for which the “log2 mean competition ratio” value stood at 0.292.
On to LIG3 C404 (UniProt P49916), for which the “log2 mean competition ratio” value was -0.0324.
Same read-out and setting: to LRP1 C2517 (UniProt Q07954) belongs -0.000915.
The same measure, in the same setting: under LRP1 C2561 (UniProt Q07954) stands -0.0952.
In the case of LDLRAP1 C119 (UniProt Q5SW96), the “log2 mean competition ratio” value is -0.0346.
Consider KIF5B C7 (UniProt P33176), for which the “log2 mean competition ratio” value is -0.236.

Staying with this experiment, now noted: 200 µM; treatment time: 4 h; cell line lysate: HEK293T.
Turning to LCP1 C460 (UniProt P13796), the “log2 mean competition ratio” value was found to be 0.126.
Same read-out and setting: to KIF5B C65 (UniProt P33176) belongs -0.207.
Regarding LRBA C1921, the “log2 mean competition ratio” value stood at 0.049.
With LARP4B C633 (UniProt Q92615), the “log2 mean competition ratio” value was found to be 0.397.
Same read-out and setting: under LACTB C476 (UniProt P83111) stands 0.268; under LARP4 C599 (UniProt Q71RC2), -0.0461.
Regarding KIF7 C1229, the “log2 mean competition ratio” value was 0.111.
Same read-out and setting: to KMT2D C5230 (UniProt O14686) belongs 0.0753.
LRP1 C2605 (UniProt Q07954): the “log2 mean competition ratio” value is 0.296.
Same read-out and setting: to LRBA C2017 belongs 0.31.
Turning to LENG8 C600 (UniProt Q96PV6), the “log2 mean competition ratio” value worked out at 0.0927.
KNTC1 C475 (UniProt P50748): the “log2 mean competition ratio” value is -0.209.
Still for that read-out and setting: under KIFC1 C212 (UniProt Q9BW19) stands -0.137; under KLC1 C236 (UniProt Q07866), -0.174; under L3HYPDH C205 (UniProt Q96EM0), -0.121.
With LIG3 C729 (UniProt P49916), the “log2 mean competition ratio” value came out at 0.0945.
Same read-out and setting: to LARS1 C546 belongs 0.286.
For LIMCH1 C333 (UniProt Q9UPQ0), the “log2 mean competition ratio” value was -0.0778.
Take LCLAT1 C304 (UniProt Q6UWP7): the “log2 mean competition ratio” value is 0.0875.
The same measure, in the same setting: to KRIT1 C297 (UniProt O00522) belongs 0.224.
Take LONP1 C520 (UniProt P36776): the “log2 mean competition ratio” value is 0.0109.
As for LEF1 C321 (UniProt Q9UJU2), the “log2 mean competition ratio” value came out at 0.117.
Regarding LMOD1 C72, the “log2 mean competition ratio” value was -0.241.
LIMA1 C316 (UniProt Q9UHB6): the “log2 mean competition ratio” value is -0.395.
For LOC100421372 C227, the “log2 mean competition ratio” value was -0.278.
With LARS2 C225 (UniProt Q15031), the “log2 mean competition ratio” value is 0.0457.
In the case of LMO7 C261 (UniProt Q8WWI1), the “log2 mean competition ratio” value was -0.00955.
Still for that read-out and setting: under KPNA6 C296 (UniProt O60684) stands -0.193.
Same read-out and setting: to KLC4 C318 (UniProt Q9NSK0) belongs 0.649; to LEMD2 C355 (UniProt Q8NC56), -0.322.
Still for that read-out and setting: to KIZ C543 (UniProt Q2M2Z5) belongs -0.0987.
Consider LEMD3 C814 (UniProt Q9Y2U8), for which the “log2 mean competition ratio” value is -0.0643.
The same measure, in the same setting: under LIG1 C280 (UniProt P18858) stands 0.298.
As for LIG3 C404 (UniProt P49916), the “log2 mean competition ratio” value was 0.144.
Still for that read-out and setting: to LRP1 C2517 (UniProt Q07954) belongs 0.628; to LRP1 C2561 (UniProt Q07954), 0.449.
Regarding LDLRAP1 C119 (UniProt Q5SW96), the “log2 mean competition ratio” value stood at 0.0672.
With KIF5B C7 (UniProt P33176), the “log2 mean competition ratio” value is -0.132.
